The target in assay [1] is Flag-tagged BRCA1 (human) (UniProt P38398). Kind of assay: far-Western, overlay or dot blot; Flag-BRCA1 immunoprecipitated by Flag-tag affinity gel, resolved by SDS-PAGE, transferred to PVDF membrane; recombinant His-TRIM47 added at 1 ug/ml, 4 °C, 18 h; detected with anti-His or anti-Flag antibody; both purified.
For assay [2], the target named is DNA damage repair protein rH2Ax (human (endogenous in triple-negative breast cancer cells)) (UniProt P16104). As to the kind of experiment: co-IP; reciprocal co-IP of endogenous rH2AX, BRCA1, BARD1 and RAD51 in triple-negative breast cancer cells; cells with overexpression of TRIM47, of the TRIM47 ring-domain mutant or of BRCA1.
The target in assay [3] is Breast Cancer susceptibility gene 1 protein (BRCA1), endogenous (human (endogenous in triple-negative breast cancer cells)) (UniProt P38398). Kind of assay: co-IP; endogenous TRIM47 and endogenous BRCA1 in triple-negative breast cancer cells; bait not told.

By UniProt entry, the sequences of proteins in these tests, tags left out.
UniProt P38398: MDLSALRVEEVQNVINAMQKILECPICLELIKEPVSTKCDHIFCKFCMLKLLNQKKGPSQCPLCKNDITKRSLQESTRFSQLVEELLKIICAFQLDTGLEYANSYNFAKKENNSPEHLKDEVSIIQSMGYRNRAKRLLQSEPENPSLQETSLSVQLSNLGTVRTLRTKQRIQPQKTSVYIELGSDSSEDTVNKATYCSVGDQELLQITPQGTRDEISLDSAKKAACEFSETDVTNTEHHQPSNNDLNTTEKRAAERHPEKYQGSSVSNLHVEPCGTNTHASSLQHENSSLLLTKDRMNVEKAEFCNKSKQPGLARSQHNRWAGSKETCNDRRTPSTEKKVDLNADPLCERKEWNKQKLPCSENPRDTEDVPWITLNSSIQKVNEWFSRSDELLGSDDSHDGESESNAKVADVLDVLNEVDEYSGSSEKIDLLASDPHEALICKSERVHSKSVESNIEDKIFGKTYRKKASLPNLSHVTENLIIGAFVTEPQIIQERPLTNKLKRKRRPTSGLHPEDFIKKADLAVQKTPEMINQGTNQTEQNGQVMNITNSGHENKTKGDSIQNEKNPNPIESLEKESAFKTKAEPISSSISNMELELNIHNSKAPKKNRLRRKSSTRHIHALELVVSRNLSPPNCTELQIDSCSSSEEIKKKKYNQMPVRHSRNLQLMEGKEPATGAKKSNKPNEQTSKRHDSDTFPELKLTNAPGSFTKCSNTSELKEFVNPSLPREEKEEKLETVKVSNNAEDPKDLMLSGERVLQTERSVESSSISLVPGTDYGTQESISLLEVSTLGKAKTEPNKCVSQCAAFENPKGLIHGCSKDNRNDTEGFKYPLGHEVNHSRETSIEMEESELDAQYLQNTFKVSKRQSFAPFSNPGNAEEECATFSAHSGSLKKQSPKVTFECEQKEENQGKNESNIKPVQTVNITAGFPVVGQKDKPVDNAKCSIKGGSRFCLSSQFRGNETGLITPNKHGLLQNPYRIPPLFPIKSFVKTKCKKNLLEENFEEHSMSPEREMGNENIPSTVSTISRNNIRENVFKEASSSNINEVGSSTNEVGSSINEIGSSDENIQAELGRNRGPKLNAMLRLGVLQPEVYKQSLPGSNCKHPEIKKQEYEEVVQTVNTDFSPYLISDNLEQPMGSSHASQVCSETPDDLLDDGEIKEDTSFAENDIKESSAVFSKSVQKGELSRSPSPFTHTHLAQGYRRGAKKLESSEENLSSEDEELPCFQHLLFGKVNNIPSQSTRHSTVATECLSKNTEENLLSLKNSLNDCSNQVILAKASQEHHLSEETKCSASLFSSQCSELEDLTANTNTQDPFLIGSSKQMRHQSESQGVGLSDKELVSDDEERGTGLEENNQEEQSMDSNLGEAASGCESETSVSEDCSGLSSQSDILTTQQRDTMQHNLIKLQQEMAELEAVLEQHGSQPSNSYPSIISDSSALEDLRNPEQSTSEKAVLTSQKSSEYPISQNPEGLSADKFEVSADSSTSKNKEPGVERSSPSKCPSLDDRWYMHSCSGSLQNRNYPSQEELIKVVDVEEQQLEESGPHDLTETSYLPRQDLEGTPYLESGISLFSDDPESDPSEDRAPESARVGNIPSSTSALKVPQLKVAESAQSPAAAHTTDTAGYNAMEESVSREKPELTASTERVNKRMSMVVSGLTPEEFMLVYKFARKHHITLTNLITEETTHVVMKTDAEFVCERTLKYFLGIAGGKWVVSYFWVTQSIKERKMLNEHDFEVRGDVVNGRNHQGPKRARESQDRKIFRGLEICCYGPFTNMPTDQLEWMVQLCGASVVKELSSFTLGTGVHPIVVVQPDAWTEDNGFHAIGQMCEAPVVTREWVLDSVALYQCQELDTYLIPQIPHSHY
UniProt Q96LD4: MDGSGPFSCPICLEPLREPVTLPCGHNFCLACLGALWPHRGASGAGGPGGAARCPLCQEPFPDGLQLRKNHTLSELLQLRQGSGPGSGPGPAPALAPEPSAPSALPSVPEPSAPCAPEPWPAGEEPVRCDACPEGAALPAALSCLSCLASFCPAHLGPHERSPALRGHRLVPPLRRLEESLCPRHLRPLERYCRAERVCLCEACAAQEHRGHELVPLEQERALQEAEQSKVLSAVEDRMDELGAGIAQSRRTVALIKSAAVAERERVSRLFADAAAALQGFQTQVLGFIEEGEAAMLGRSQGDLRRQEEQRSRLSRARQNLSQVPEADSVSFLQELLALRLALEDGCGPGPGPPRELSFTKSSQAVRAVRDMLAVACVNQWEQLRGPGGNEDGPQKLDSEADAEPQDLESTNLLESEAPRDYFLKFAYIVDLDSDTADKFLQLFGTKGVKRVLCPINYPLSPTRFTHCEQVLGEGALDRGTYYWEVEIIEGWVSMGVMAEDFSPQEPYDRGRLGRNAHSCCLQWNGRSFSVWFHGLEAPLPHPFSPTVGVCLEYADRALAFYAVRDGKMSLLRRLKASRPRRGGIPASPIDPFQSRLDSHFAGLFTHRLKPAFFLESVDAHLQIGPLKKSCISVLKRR

Results are given in words; binding and its absence hold for the method and conditions named. For part of these data: Binding seen in cells or lysates may run through a third protein. Some entries that bind do so weakly or less than the wild type.

For “His-tagged recombinant TRIM47 (from UniProt Q96LD4 1-638)”, the binding result in assay [1] was “binds”. With RAD51 (from UniProt Q06609 1-339), the binding result in assay [2] is given as “binds”. Take “tripartite motif-containing 47 (TRIM47), endogenous (from UniProt Q96LD4 1-638)”: in assay [3], the binding entry is “binds”.

The values are drawn from paper PMC10008536.
